According to PubChem BioAssay AID2685 (National Center for Advancing Translational Sciences (NCATS), 2010):
Among all 320,000 compounds or so, about 2,100 (0.66%) were called active. The inconclusive results got no clear call from the source; some entries with a clear call stand among them for comparison. The call rests on the fitted dose curve; in most records, active means well fitted inhibition curve with a large enough effect in the signal ratio, with a control signal flat (not every such curve was filed as active); inconclusive means small, poorly fitted or top-dose-only effect, or effect the other way, or a change in a side signal; inactive means flat fitted curve, though single readings scatter; the % refers to the signal ratio. Potencies beside an inconclusive call are fits to weak or partial responses and may not hold up.

Assay: qHTS Assay for Lipid Storage Modulators in Drosophila S3 Cells
Details: BODIPY lipid droplet fluorescence, 18-24 h, cells fed with added oleic acid; lipid storage change, negative = inhibition: at 46.1 µM (top of the series) unless noted
Summary of the method: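 Laser-scanning cytometry quantifies lipid droplet accumulation (500–530 nm total intensity; droplet/cell object ratio) in oleic acid-fed (400 uM added) Drosophila S3 cells treated with a concentration series. 20 uM Triacsin C defined 100% inhibition.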
On the % scale 0 is the no-effect control and ±100 the full control effect; potency means the concentration at half of the fitted maximal effect.

SMILES	Potency	lipid storage change, negative = inhibition
CCCN(CC(=O)Nc1ccccc1C)C(=O)c1sc2ccccc2c1Cl	inconclusive: 0.0731 µM [falling, full curve, poor fit]	
COC(=O)c1cn(C(=O)c2ccc(OC)cc2)c2ccccc12	inconclusive: 0.082 µM [activator, full curve, poor fit]	
O=C(NN1CC(C(=O)OCc2ccccc2F)CC1=O)c1ccccc1 (stereo unspecified)		inconclusive: -84%
COc1cccc(CN(CC(=O)NCc2ccccc2)S(=O)(=O)CCl)c1		inconclusive: 29.3%
O=C(N/N=C1\CC2CC=CC12)c1ccc(Br)cc1 (stereo unspecified)		inconclusive: 41.2%
O=C(/C=C/c1ccc2c(c1)OCO2)NCCS(=O)(=O)N1CCN(c2ccc(F)cc2)CC1	inconclusive: 2.31 µM [activator, partial curve]	
CCc1ccccc1NC(=O)CSc1ccsc1[N+](=O)[O-]		inconclusive: -10.8%
CCCOC(=O)c1ccc(NC(=O)CCC(=O)OCC)cc1		inconclusive: 21.9%
COc1cccc(C=Nc2cc(C)on2)c1O	inconclusive: 25.9 µM [falling, single point]	
Cc1ccc(CCNS(=O)(=O)c2ccc3c(c2)NC(=O)C(C)C(=O)N3)cc1 (stereo unspecified)	inconclusive: 10.3 µM [activator, single point]	
Cc1onc(-c2ccccc2)c1CNC(=O)CN1C(=O)c2ccccc2C1=O		inconclusive: -19%
CCN(CC)S(=O)(=O)c1ccc(N)cc1	inconclusive: 29.1 µM [activator, single point]	
CC(=O)Nc1ccc(S(=O)(=O)N2CCC(C(=O)c3ccc(Cl)cc3)CC2)cc1		inconclusive: -29.5%
O=C1CC(c2ccco2)c2ccc3ccccc3c2N1 (stereo unspecified)		inconclusive: 19.1%
Cc1nc2ccccc2c(=O)n1NC(=O)/C=C/c1ccccc1Cl	inconclusive: 16.4 µM [activator, partial curve, poor fit]	
CS(=O)(=O)N1CCN(C2CCN(Cc3ccccc3)CC2)CC1	inconclusive: 29.1 µM [falling, single point]	
Cn1c(=O)c2c(nc(NCc3ccco3)n2CC(O)CO)n(C)c1=O (stereo unspecified)		inactive
Cc1ccc(NC(=O)CC(N)=S)cc1		inconclusive: -0.703%
O=[N+]([O-])c1cnc(Nc2ccc(Cl)cn2)c([N+](=O)[O-])c1	inconclusive: 20.6 µM [falling, single point]	
O=C(Nc1ccc2cn[nH]c2c1)c1ccccc1F		inconclusive: 26.8%
COc1ccc(OCC(=O)Nc2ccc(N3CCOCC3)cc2)cc1		inconclusive: 8.39%
CC(=O)c1ccc(OCC(O)CN2CCN(Cc3ccc4c(c3)OCO4)CC2)cc1 (stereo unspecified)		inconclusive: -14.5%
CCc1ccc(N2CC(C(=O)OCC(=O)Nc3ccc([N+](=O)[O-])cc3)CC2=O)cc1 (stereo unspecified)		inconclusive: 6.27%
COCC(C)n1c(C)cc(C(=O)COC(=O)CN=C2NS(=O)(=O)c3ccccc32)c1C (stereo unspecified)		inactive
O=C1NCCN(Cc2c(F)cccc2Cl)C1CC(=O)N1CCCCO1 (stereo unspecified)		inconclusive: 38.7%
O=C(CCS(=O)(=O)Cc1ccccc1)Nc1ncc([N+](=O)[O-])s1		inconclusive: -3.34%

SMILES	Potency	lipid storage change, negative = inhibition
CCCCOC(=O)c1cc(C)nc2ccc(Br)cc12	inconclusive: 2.91 µM [activator, single point]	
CN(CCc1ccccn1)C(=O)CCC1CCCN(C(=O)c2cccc(N(C)C)c2)C1 (stereo unspecified)		inconclusive: -20.3%
COc1ccc(CN2CCC(=O)N([C@H](CO)Cc3ccccc3)CC2)cc1		inconclusive: 22.8%
CCN(Cc1nc2ccccc2c(=O)[nH]1)C(=O)CN1C(=O)NC2(CCCCC2C)C1=O (stereo unspecified)		inconclusive: 4.01%
COc1ccc(CCc2nnc(NS(C)(=O)=O)s2)cc1		inconclusive: 69.1%
O.O.O.O=S(=O)([O-])OC[C@H]1O[C@@H](O[C@]2(COS(=O)(=O)[O-])O[C@H](OS(=O)(=O)[O-])[C@@H](OS(=O)(=O)[O-])[C@@H]2OS(=O)(=O)[O-])[C@H](OS(=O)(=O)[O-])[C@@H](OS(=O)(=O)[O-])[C@@H]1OS(=O)(=O)[O-].[Al]		inconclusive: 0.62%
COC(C(=O)NC1CCCCCCC1)c1ccccc1 (stereo unspecified)		inconclusive: 2.47%
CCCc1nn(C)c2c1C(c1ccncc1)C(C#N)=C(N)O2 (stereo unspecified)		inconclusive: -0.733%
Cc1c(C)[n+](=O)c2c(n1[O-])CCCCC2		inconclusive: -57.4%
CCCCNC(=S)N1CCN(c2ccccc2Cl)CC1		inconclusive: 4.48%
Cc1ccc(N2C(=O)c3ccc(N)cc3C2=O)cc1		inconclusive: 16%
C/C(=N\NC(N)=S)C1C2C3CC4C5CC(C42)C1C53 (stereo unspecified)		inconclusive: -25.5% [cytotoxic]
C/C(=N/NC(=O)CCC(=O)Nc1cccc(Cl)c1)c1ccc(C)cc1		inconclusive: 10.6%
O=C(NCc1ccc(Cl)cc1)NCc1ccc(Cl)cc1	inconclusive: 23.1 µM [activator, partial curve]	
CCOC(=O)c1cc(C#N)c(SCC(=O)Nc2ccc(C(C)=O)cc2)[nH]c1=O		inconclusive: 18.7%
O=C(COC(=O)c1c[nH]c(=O)[nH]c1=O)NCc1ccccc1		inconclusive: -135%
Cc1cc(C)cc(NC(=O)CCN2CCOCC2)c1		inconclusive: 2.17%
CCN(CC)S(=O)(=O)c1ccc(O)c(C(=O)OCC(=O)N2CCCC2)c1	inconclusive: 5.8 µM [falling, single point]	
Cc1ccc(C)c(OCC(=O)N2CCN(C(=O)c3ccco3)CC2)c1		inconclusive: 14.8%
Oc1ccc(Cl)cc1N=Cc1sc2ccccc2c1Cl		inconclusive: 1.63%
O=C(O)CNS(=O)(=O)c1ccc(F)cc1	inconclusive: 5.17 µM [falling, full curve, poor fit]	
COc1cc(C(=O)n2cnc3ccccc32)c([N+](=O)[O-])cc1OC		inconclusive: 19.3%
O=C(CC1Nc2cccc3cccc(c23)NC1=O)Nc1ccc(F)cc1 (stereo unspecified)		inconclusive: 3.14%
CCN1CCN(c2ccc(S(=O)(=O)N3CCCCC3)cc2NC(=O)Cc2ccc(OC)cc2)CC1		inconclusive: -15.1%
COc1ccc(Cl)cc1-n1c(=S)sc2c(=O)[nH]c(SCC(=O)C(C)(C)C)nc21		inconclusive: 51%
Cc1cc(C)cc(OCC(=O)OCC(=O)NC2CCCCCC2)c1	inconclusive: 29.1 µM [activator, single point]	

Individual results from above:
`CN(CCc1ccccn1)C(=O)CCC1CCCN(C(=O)c2cccc(N(C)C)c2)C1` (stereo unspecified) – lipid storage change, negative = inhibition: inconclusive: -20.3%
`COc1cc(C(=O)n2cnc3ccccc32)c([N+](=O)[O-])cc1OC` – lipid storage change, negative = inhibition: inconclusive: 19.3%
`COC(C(=O)NC1CCCCCCC1)c1ccccc1` (stereo unspecified) – lipid storage change, negative = inhibition: inconclusive: 2.47%

Next records.

SMILES	Potency	lipid storage change, negative = inhibition
C/C(=N/NC(=O)C1CC1(c1ccccc1)c1ccccc1)c1ccco1 (stereo unspecified)		inconclusive: 8.74%
O=C(CSC1=NCCS1)Nc1nc2c(s1)CCCC2		inconclusive: 12.6%
COc1ccc(CC(=O)Nc2cccc(-c3nnc(-c4ccco4)o3)c2)cc1		inconclusive: -90.9%
CC(C)NC(=O)CSc1nc(Cc2cccs2)nc2ccccc12		inconclusive: 17.7%
CN(C)c1ccc(/C=N/NC(=O)CCCO)cc1		inconclusive: 4.56%
N#C/C(=C/c1cccs1)c1nc2ccccc2[nH]1	inconclusive: 0.164 µM [activator, partial curve]	
COc1ccc(OC(=O)COc2ccc(C)cc2)cc1		inconclusive: 22.9% [at 9.22 µM]
CSc1ccc(C(c2c(C(=O)O)[nH]c3ccccc23)c2c(C(=O)O)[nH]c3ccccc23)cc1		inconclusive: -10.2%
N#CCC(=O)Nc1cc(C(F)(F)F)ccc1N1CCOCC1		inconclusive: -8.98%
CC(C)N(C(C)C)S(=O)(=O)c1ccc(N2CCc3ccccc3C2)nc1	inconclusive: 29.1 µM [activator, single point]	
COc1ccc(CNC(=O)COC(=O)CO/N=C(\C)c2ccc3c(c2)OCO3)cc1		inconclusive: -4.33%
Nc1c(C(=O)NC2CCCCC2)c2nc3ccccc3nc2n1/N=C/c1ccco1	inconclusive: 29.1 µM [activator, single point]	
CC(C)CN1C(=O)CC(Sc2ccccc2C(=O)O)C1=O (stereo unspecified)		inconclusive: -17.9%
Cn1cnc(S(=O)(=O)N2CCN(C(c3ccccc3)c3ccccc3)CC2)c1	inconclusive: 0.0046 µM [falling, full curve, poor fit]	
COc1ccccc1-n1c(=O)oc2ccc(Cl)cc2c1=O	inconclusive: 0.13 µM [falling, full curve, poor fit]	
CC(=O)c1ccc(NC(=O)C(C)OC(=O)CCN=C2NS(=O)(=O)c3ccccc32)cc1 (stereo unspecified)		inconclusive: 0.185%
N#Cc1c(N)nc(SCC(=O)NCCc2ccccc2)c(C#N)c1-c1cccs1	inconclusive: 29.1 µM [falling, single point]	
COc1ccc(CN2CSC(=S)N(Cc3ccccc3)C2)cc1		inconclusive: 18.5%
Cc1ccc(-c2nn(-c3ccccc3)cc2/C=N/NC(=O)CSc2nnc(C)n2-c2ccccc2)cc1	inconclusive: 18.4 µM [falling, single point]	
CCOC(=O)C(C(C)=O)=C1SC2CS(=O)(=O)CC2S1 (stereo unspecified)	inconclusive: 0.13 µM [falling, full curve, poor fit]	
COc1ccc(Cl)cc1NC(=O)CN(C)Cc1cccs1		inconclusive: -20.7%
Cc1ccc(N(C(=O)Cc2cccs2)C(C(=O)NC2CCCC2)c2ccncc2)cc1 (stereo unspecified)	inconclusive: 32.6 µM [falling, single point]	
Cc1nnc(SCC(=O)Nc2nccs2)n1N		inconclusive
CC(=O)Nc1ccc(C(=O)Nc2nc(-c3cc(C)n(Cc4ccccc4)c3C)cs2)cc1	inconclusive: 0.259 µM [activator, full curve, poor fit]	
